PubChem BioAssay AID686938 – Drosophila RNAi Screening Center | 2013
Assay: 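Knock-downs reducing store-operated calcium influx in Drosophila cells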 (primary screen). Cells: Drosophila S2R+ cells. Knock-down reagent: long dsRNA against Drosophila genes, about 0.25 µg dsRNA per well, roughly 10,000 cells. Time to read-out: 5 days of knock-down before the calcium assay. Conditions: thapsigargin (SERCA pump blocker) to empty calcium stores; entry signal taken 4 min after adding it. Measurement: 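Duplicate raw fluo-4 intensities per well from a plate reader, at rest and four minutes after thapsigargin emptied calcium stores; entry-to-rest ratio filled for only some wells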. Reading the numbers: calcium entry signal: higher = stronger calcium signal after store depletion; entry to resting ratio: higher = more calcium entry relative to resting level; resting calcium signal: higher = higher resting calcium signal. Hit rule: 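Hit if the duplicate-averaged plate z-score for entry over resting signal is under −3; wells with weak total dye signal (Fmax z < −2) or more than 5 off-targets removed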. Calls: active = strongly reduced calcium entry; inactive = no strong reduction.
The screen tested about 23,000 reagents; below is a random part of those with a known target gene and a result. Of all reagents, 75 (0.33%) are marked active. 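Raw plate signals without normalisation; calls rest on plate z-scores that were not deposited; ratio present for only 364 wells.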 Entries without a mark were called inactive. A plus sign joins genes that one reagent is predicted to hit. Not stated in the record: the dose of the treatment.

gene,amplicon,"calcium entry signal, replicate 1 (fluorescence units)","calcium entry signal, replicate 2 (fluorescence units)",entry to resting ratio,"resting calcium signal, replicate 1 (fluorescence units)","resting calcium signal, replicate 2 (fluorescence units)"
Phb2 (Prohibitin 2),DRSC06512,2.27e7,1.41e7,,1.31e7,7.92e6
CG11106,DRSC19381,3.52e7,3.84e7,,1.76e7,1.81e7
Hsp70Bb + Hsp70Ba + Hsp70Bc + 1 more,DRSC21247,3.77e7,4.21e7,,1.97e7,1.90e7
Hsp70Bb + Hsp70Ba + Hsp70Bc + 1 more,DRSC21248,4.05e7,3.95e7,,2.12e7,1.80e7
Ak3 (Adenylate kinase 3),DRSC16075,4.27e7,3.72e7,,2.06e7,1.94e7
gdl-ORF39 + gdl,DRSC11350,3.13e7,4.81e7,,1.63e7,1.73e7
CG30177,DRSC22680,2.31e7,3.05e7,,1.24e7,1.29e7
ND-B17 (NADH dehydrogenase (ubiquinone) B17 subunit),DRSC01981,4.71e7,3.46e7,,2.01e7,1.67e7
CG9582,DRSC03267,3.36e7,4.66e7,,1.57e7,2.00e7
eIF4E6 (eukaryotic translation initiation factor 4E6),DRSC14853,4.40e7,6.46e7,,2.11e7,2.54e7
CG13531,DRSC04173,4.82e7,4.63e7,,2.31e7,2.11e7
CG34165,DRSC01970,2.41e7,1.76e7,,1.48e7,1.14e7
Rpn3 (Regulatory particle non-ATPase 3),DRSC03318,2.08e7,2.35e7,,1.51e7,1.52e7
CG34267,DRSC07881,3.79e7,4.98e7,,2.06e7,2.26e7
CG2767,DRSC15451,2.80e7,3.80e7,,1.24e7,1.73e7
"SmydA-2 (SET and MYND domain containing, arthropod-specific, member 2)",DRSC10296,1.83e7,3.75e7,,9.59e6,1.62e7
CG11756,DRSC19424,3.43e7,3.69e7,,1.66e7,1.69e7
CG8128,DRSC20084,2.49e7,3.21e7,,1.22e7,1.53e7
CG33107,DRSC21898,3.10e7,3.74e7,,1.47e7,1.99e7
klhl10 (kelch like family member 10),DRSC05274,5.07e7,4.68e7,,2.33e7,2.32e7
klhl10 (kelch like family member 10),DRSC19171,3.42e7,3.71e7,,1.65e7,1.83e7
klhl10 (kelch like family member 10),DRSC20750,3.46e7,4.84e7,,1.86e7,2.17e7
klhl10 (kelch like family member 10),DRSC20925,2.36e7,3.72e7,,1.34e7,1.58e7
lncRNA:CR43334 (long non-coding RNA:CR43334),DRSC07894,4.24e7,4.04e7,,2.26e7,1.93e7
lncRNA:CR43334 (long non-coding RNA:CR43334),DRSC07895,4.65e7,4.31e7,,2.43e7,1.97e7
raw,DRSC03599,3.57e7,3.98e7,,1.57e7,1.92e7
raw,DRSC03600,3.21e7,4.55e7,,1.44e7,2.17e7
CG32751,DRSC21770,3.30e7,3.71e7,,1.79e7,1.78e7
bigmax,DRSC15481,4.21e7,5.06e7,,1.89e7,2.27e7
vsg (visgun),DRSC10219,2.85e7,4.41e7,,1.56e7,1.90e7
Nach,DRSC07478,4.97e7,5.66e7,,2.36e7,2.86e7
Tep1 (Thioester-containing protein 1),DRSC03450,5.27e7,4.28e7,,2.27e7,1.69e7
CG1503,DRSC20512,3.16e7,3.53e7,,1.48e7,1.61e7
Datp (Diadenosine tetraphosphatase),DRSC01102,4.16e7,4.12e7,,2.04e7,1.93e7
Neos (Neosin),DRSC11235,4.25e7,2.71e7,,2.83e7,1.17e7
CG32507,DRSC20421,3.39e7,3.12e7,,1.65e7,1.58e7
ph-p (polyhomeotic proximal),DRSC18820,3.70e7,5.16e7,2.1,1.78e7,1.98e7
CG31445,DRSC14443,2.45e7,3.15e7,,1.13e7,1.33e7
dob (doppelganger von brummer),DRSC19948,3.41e7,3.85e7,,1.63e7,1.82e7
CG12506,DRSC00347,2.60e7,2.61e7,,1.25e7,1.21e7
CG5397,DRSC00683,5.04e7,,,2.65e7,
Dgkepsilon (Diacyl glycerol kinase epsilon),DRSC07399,4.81e7,4.46e7,,2.02e7,2.00e7
tos (tosca),DRSC03624,4.45e7,,,2.12e7,
Cph (Chronophage),DRSC17507,2.95e7,2.87e7,,1.52e7,1.32e7
Cph (Chronophage),DRSC18434,3.47e7,4.82e7,,1.80e7,2.16e7
htt (huntingtin),DRSC16970,4.04e7,5.57e7,,1.99e7,2.52e7
slou (slouch),DRSC17058,3.23e7,3.86e7,,5.24e7,1.72e7
rnh1 (ribonuclease H1),DRSC07673,3.10e7,3.40e7,,1.50e7,1.54e7
CG3494,DRSC04375,4.36e7,4.66e7,,2.06e7,2.07e7
Cp38 (Chorion protein 38),DRSC18453,3.35e7,4.13e7,,1.80e7,1.86e7
"ATPsynG (ATP synthase, subunit G)",DRSC02928,4.10e7,4.49e7,,2.13e7,1.90e7
Cpr100A (Cuticular protein 100A),DRSC14465,4.01e7,5.87e7,,1.86e7,2.38e7
Drp1 (Dynamin related protein 1),DRSC00574,3.61e7,,,2.12e7,
PIP82,DRSC18694,4.19e7,3.98e7,,1.85e7,1.78e7
Cys (Cystatin-like),DRSC16637,3.01e7,5.57e7,,1.48e7,6.85e7
heix (heixuedian),DRSC03542,3.69e7,,,2.07e7,
CG3626,DRSC18318,3.12e7,4.13e7,,1.42e7,1.79e7
ed (echinoid),DRSC00350,4.37e7,,,2.42e7,
ed (echinoid),DRSC00438,3.72e7,4.18e7,,1.89e7,1.88e7
ed (echinoid),DRSC00439,3.82e7,4.10e7,,1.83e7,1.87e7
ed (echinoid),DRSC00478,3.84e7,4.05e7,,1.83e7,1.85e7
CG11147,DRSC02129,2.81e7,3.02e7,,1.40e7,1.36e7
CG17195,DRSC15188,3.70e7,6.73e7,,1.80e7,2.76e7
CG42268,DRSC10171,2.74e7,4.59e7,,1.46e7,1.84e7
CG42268,DRSC10702,2.60e7,4.53e7,,1.38e7,1.77e7
CG42268,DRSC21797,4.40e7,3.73e7,,2.34e7,1.77e7
dsf (dissatisfaction),DRSC03524,2.81e7,2.82e7,,1.39e7,1.36e7
Taf12L (TBP-associated factor 30kD subunit alpha-2),DRSC00467,3.02e7,3.28e7,,1.45e7,1.46e7
spz4 (spatzle 4),DRSC02410,3.99e7,4.62e7,,1.95e7,2.00e7
Bet3 (Blocked early in transport 3),DRSC10388,2.44e7,2.74e7,,1.34e7,1.32e7
Zip48C (Zinc/iron regulated transporter-related protein 48C),DRSC06314,3.23e7,3.32e7,,1.39e7,1.62e7
w-cup (world cup),DRSC03048,4.49e7,5.51e7,,2.33e7,2.32e7
tst (twister),DRSC14212,4.16e7,3.51e7,,2.04e7,1.70e7
RpL7 (Ribosomal protein L7),DRSC03417,1.17e7,1.12e7,,7.84e6,8.15e6
MSBP (membrane steroid binding protein),DRSC20146,3.58e7,3.64e7,,1.76e7,1.67e7

A few values from the list.
Tep1 (Thioester-containing protein 1) [DRSC03450], calcium entry signal, replicate 1 (fluorescence units) = 5.27e7
Taf12L (TBP-associated factor 30kD subunit alpha-2) [DRSC00467], resting calcium signal, replicate 1 (fluorescence units) = 1.45e7
Under “calcium entry signal, replicate 1 (fluorescence units)”, tos (tosca) [DRSC03624] reads 4.45e7
Value for Cp38 (Chorion protein 38) [DRSC18453] in “resting calcium signal, replicate 2 (fluorescence units)”: 1.86e7
